Laboratory results from the supplement of paper PMC6078165.
Values are relative to the signal before dosing, not to a vehicle control; the signal also falls without drug.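 The tumor cells are basal-like or mesenchymal-like triple-negative breast cancer lines cultured without fibroblasts. Reduced red signal indicates lost mitochondrial integrity, serving as a proxy for apoptotic death.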

What was measured:
MDAMB231 = experiment: relative JC-1 red fluorescence (viability) vs pre-drug, monoculture (fraction); higher = more viable cancer cells; conditions: coculture fibroblast: none (monoculture)
Method: (§1)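 JC-1 labelled TNBC cells grown in monoculture (density kept equal with unlabelled cancer cells) in 384-well plates in FluoroBrite medium, treated with one of 42 anticancer drugs at 0.1, 1, 10 or 100 uM. JC-1 red fluorescence (mitochondrial integrity, surrogate of apoptotic death) was read by plate reader every 8 h for 72 h. Values are normalised to each well's pre-drug value, with background from alamethicin. The stock of one drug was tenfold lower, so its dose labels may be too high. Monoculture values are repeated alongside each fibroblast plate and are averaged here.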

MDAMB436 = experiment: as above; conditions: coculture fibroblast: none (monoculture)
Method: as §1

O=c1[nH]cc(F)c(=O)[nH]1 [Fluorouracil]
relative JC-1 red fluorescence
Conditions	8 h	16 h	24 h	32 h	40 h	48 h	56 h	64 h	72 h
MDAMB231, 0.1 µM	0.7455	0.727	0.585	0.59921	0.566	0.541	0.497	0.512	0.506
MDAMB231, 1 µM	0.7368	0.7082	0.6159	0.582	0.527	0.512	0.479	0.4923	0.488
MDAMB231, 10 µM	0.7486	0.711	0.655	0.644	0.618	0.606	0.5736	0.5922	0.5907
MDAMB231, 100 µM	0.748	0.703	0.734	0.69	0.664	0.66	0.629	0.647	0.652
MDAMB436, 0.1 µM	0.861	0.804	0.78	0.741	0.72	0.722	0.735	0.74	0.743
MDAMB436, 1 µM	0.84192	0.7175	0.7232	0.671	0.661	0.66	0.652	0.654	0.66
MDAMB436, 10 µM	0.8864	0.818	0.825	0.782	0.798	0.797	0.806	0.81	0.811
MDAMB436, 100 µM	0.873	0.7326	0.7518	0.6939	0.6723	0.65623	0.6455	0.64751	0.6522

CS(=O)(=O)CCNCc1ccc(-c2ccc3ncnc(Nc4ccc(OCc5cccc(F)c5)c(Cl)c4)c3c2)o1 [Lapatinib]
relative JC-1 red fluorescence
Conditions	8 h	16 h	24 h	32 h	40 h	48 h	56 h	64 h	72 h
MDAMB231, 0.1 µM	0.756	0.791	0.569	0.658	0.635	0.601	0.564	0.557	0.551
MDAMB231, 1 µM	0.776	0.7483	0.6932	0.69	0.661	0.646	0.624	0.617	0.606
MDAMB231, 10 µM	0.815	0.87	0.64	0.851	0.857	0.856	0.847	0.837	0.824
MDAMB231, 100 µM	0.772	0.754	0.732	0.72	0.6973	0.682	0.645	0.665	0.64
MDAMB436, 0.1 µM	0.8719	0.8139	0.7868	0.723	0.703	0.698	0.691	0.686	0.68
MDAMB436, 1 µM	0.8905	0.81	0.781	0.715	0.693	0.671	0.646	0.633	0.623
MDAMB436, 10 µM	0.855	0.766	0.756	0.74	0.762	0.772	0.775	0.79	0.793
MDAMB436, 100 µM	0.88809	0.757	0.776	0.701	0.683	0.665	0.65	0.641	0.628

N#Cc1ccc(C(c2ccc(C#N)cc2)n2cncn2)cc1 [Letrozole]
relative JC-1 red fluorescence
Conditions	8 h	16 h	24 h	32 h	40 h	48 h	56 h	64 h	72 h
MDAMB231, 0.1 µM	0.794	0.708	0.757	0.67	0.646	0.662	0.636	0.682	0.686
MDAMB231, 1 µM	0.747	0.726	0.643	0.608	0.551	0.536	0.502	0.519	0.514
MDAMB231, 10 µM	0.81	0.707	0.841	0.722	0.708	0.73	0.723	0.773	0.774
MDAMB231, 100 µM	0.7924	0.7973	0.662	0.713	0.669	0.645	0.609	0.605	0.594
MDAMB436, 0.1 µM	0.875	0.714	0.723	0.681	0.659	0.651	0.655	0.658	0.666
MDAMB436, 1 µM	0.841	0.749	0.741	0.698	0.693	0.69	0.679	0.679	0.684
MDAMB436, 10 µM	0.901	0.819	0.85	0.825	0.83	0.841	0.855	0.857	0.88
MDAMB436, 100 µM	0.884	0.805	0.792	0.738	0.711	0.687	0.667	0.648	0.64

CC(=O)O[C@H]1C(=O)[C@@]2(C)[C@H]([C@H](OC(=O)c3ccccc3)[C@]3(O)C[C@H](OC(=O)[C@H](O)[C@@H](NC(=O)c4ccccc4)c4ccccc4)C(C)=C1C3(C)C)[C@]1(OC(C)=O)CO[C@@H]1C[C@@H]2O [Paclitaxel]
relative JC-1 red fluorescence
Conditions	8 h	16 h	24 h	32 h	40 h	48 h	56 h	64 h	72 h
MDAMB231, 0.1 µM	0.754	0.687	0.718	0.671	0.641	0.644	0.641	0.682	0.683
MDAMB231, 1 µM	0.823	0.835	0.763	0.791	0.752	0.743	0.722	0.615	0.656
MDAMB231, 10 µM	0.861	0.815	0.799	0.771	0.726	0.709	0.682	0.703	0.698
MDAMB436, 0.1 µM	0.8503	0.791	0.793	0.751	0.78	0.79	0.8	0.808	0.818
MDAMB436, 1 µM	0.876	0.762	0.787	0.739	0.717	0.706	0.699	0.699	0.696
MDAMB436, 10 µM	0.9017	0.84697	0.854	0.802	0.82	0.812	0.813	0.818	0.825
